{
  "source": "patent US20090004749",
  "about": "“METHOD AND KIT FOR DETERMINING THE AMOUNT OF DNA BINDING PROTEIN” (SYSMEX CORPORATION, published 2009)",
  "key": {"[1]": {"system": "NF-κB (endogenous, TNF-α-activated HeLa nuclear extract) (Homo sapiens)", "assay": "binding assay", "settings": "FCS; HeLa nuclear extract with TNF-α; poly(dIdC); protein in an extract; label: 5'-TAMRA; folded or branched DNA"}, "[2]": {"system": "NF-κB (endogenous, TNF-α-activated HeLa nuclear extract) (Homo sapiens)", "assay": "competition with a labelled probe", "settings": "FCS, poly(dIdC), protein in an extract, folded or branched DNA"}},
  "note": "The exact form of at least one protein or probe is not confirmed. At least one result comes from cells or an extract, where the contact may be indirect. For part of these data: No signal at the amounts used counts as a negative.",
  "data": [
    {"sequence": "AGTTGAGGGGACTTTCCCAGGCAAAAGCCTGGGAAAGTCCCCTCAACT [Pfw]", "values": [
      {"measurement": "binding result", "setting": "[1]", "result": "binds"}
    ]},
    {"sequence": "AGTTGAGGGGACTTTCCCAGGCAAAAGCCTGGGAAAGTCCCCTCAACT [Pw]", "values": [
      {"measurement": "binding result", "setting": "[2]; 50 nM Pw competes with 1 nM Pfw, variant of Pfw", "result": "binds"}
    ]},
    {"sequence": "CAGGCGCGTTTTGACCATCTTAAAAAAGATGGTCAAAACGCGCCTG [Pn]", "values": [
      {"measurement": "binding result", "setting": "[2]; 50 nM Pn does not compete", "result": "no binding"}
    ]}
  ]
}
